Binding screen against folded nucleic acids

Source: the ROBIN nucleic acid binder screens (doi:10.1002/anie.202211358).

Targets, with sequences 5′ to 3′:
T1: PreQ1 riboswitch RNA pseudoknot, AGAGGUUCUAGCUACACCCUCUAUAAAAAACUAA. From B. subtilis. Hit rate about 0.7% of about 24,000 compounds.
T2: TPP riboswitch RNA three-way junction, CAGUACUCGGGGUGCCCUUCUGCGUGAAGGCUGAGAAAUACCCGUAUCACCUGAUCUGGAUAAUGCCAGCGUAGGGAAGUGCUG. Hit rate about 0.7% of about 24,000 compounds.
T3: SAM-II riboswitch RNA pseudoknot, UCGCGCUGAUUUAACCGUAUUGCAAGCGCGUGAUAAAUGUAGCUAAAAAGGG. Hit rate about 1% of about 21,000 compounds.

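Each compound is printed as two spots on a slide made to bind it covalently, so it has no test concentration; the read-out is fluorescence of the bound, labelled oligonucleotide. For the PreQ1, TPP and SAM-II riboswitches the laboratory earlier reported (doi:10.1038/s41467-019-09493-3) 1 µM RNA, 2 h, and a rule that included a mean Z-score above 3 (spot signal-to-noise against the whole library), a score well above that on a control array, and duplicate spots agreeing (coefficient of variation under 100). The data file gives only the calls; its cut-offs may differ, and compounds hitting several targets are kept. The calls come from the array alone, and fixing a compound to the slide can hide its binding.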 “hit” means called a hit, “no hit” means screened and not called a hit. The compounds are a random part of those screened. A target missing from an entry has no call listed here.

For CC(CC(F)(F)F)NCCNc1cccnc1 (centres unmarked) the calls were T1: no hit; T2: no hit; T3: no hit.
For CC(C)c1cc(C(=O)N2CCC(Cc3cccc(CO)c3)C2)no1 (centres unmarked) the calls were T1: no hit; T2: no hit; T3: no hit.
For c1ccc(C(CCNCc2ccc3c(c2)OCO3)c2ccco2)cc1 (centres unmarked) the calls were T1: no hit; T2: no hit; T3: no hit.
For CCc1cnc(N)nc1NCCC(=O)NC1CCCCC1 the calls were T1: no hit; T2: no hit; T3: no hit.
For COc1ccc(N2C(=O)CC(Nc3ccc(N4CCOCC4)cc3)C2=O)cc1 (centres unmarked) the calls were T1: no hit; T2: no hit; T3: no hit.
For O=C(NCCO)c1nc(-c2ccccc2)n(-c2ccccc2)n1 the calls were T1: no hit; T2: no hit.
For Nc1nc(=O)c2c([nH]1)NC[C@@H](CNc1ccc(C(=O)N[C@@H](CCC(=O)[O-])C(=O)[O-])cc1)N2C=O the calls were T1: no hit; T2: no hit; T3: no hit.
For CN1CCC(N(C)CC(=O)N2CCC(Cc3cccc(CO)c3)C2)CC1 (centres unmarked) the calls were T1: no hit; T2: no hit; T3: no hit.
For COc1ccc(/N=N/c2c(N)n[nH]c2N)cc1 the calls were T1: no hit; T2: no hit; T3: hit.
For CCNC(=O)[C@@H]1C[C@@H](N)CN1S(=O)(=O)C[C@]12CC[C@H](CC1=O)C2(C)C the calls were T1: no hit; T2: no hit; T3: no hit.
For Cc1ccccc1Cn1c(=N)n(CC(O)c2ccco2)c2ccccc21.Cl (centres unmarked) the calls were T1: no hit; T2: no hit; T3: no hit.
For O=C(O)C1CC2(CCN(C(=O)CCCn3ccnc3)CC2)CN1 (centres unmarked) the calls were T1: no hit; T2: no hit; T3: no hit.
For CC1CCCN(CC(O)COc2ccc3c(c2)OCO3)C1.Cl (centres unmarked) the calls were T1: no hit; T2: no hit; T3: no hit.
For N#Cc1c(N)nc2c(c1-c1ccsc1)CCCCCC2 the calls were T1: no hit; T2: no hit; T3: no hit.
For Cc1nc2cc([C@@H]3c4ccccc4C[C@H]3O)ccc2o1 the calls were T1: no hit; T2: no hit; T3: no hit.
For COc1ccc(S(=O)(=O)[C@H]2CS(=O)(=O)C[C@@H]2NCCc2ccc(Cl)cc2)cc1 the calls were T1: no hit; T2: no hit.
For CN(C)Cc1ccc(-c2nc3cccc4c3n2CCNC4=O)cc1 the calls were T1: no hit; T2: no hit; T3: no hit.
For O=C(CC1(O)CCCCC1)OC1CCCC1 the calls were T1: no hit; T2: no hit; T3: no hit.
For Cc1ccc(C(=O)c2oc3ccc(Cl)cc3c2N)cc1 the calls were T1: no hit; T2: no hit; T3: no hit.
For CC(NC1=CC(=O)OC12CCCCC2)c1ccc(N2CCOCC2)cc1 (centres unmarked) the calls were T1: no hit; T2: no hit; T3: no hit.
For CNc1nc(N)c(C(=O)c2ccc(F)cc2)s1 the calls were T1: no hit; T2: no hit; T3: no hit.
For CC1(Cc2ccc3c(c2)OCO3)CCC(=O)N(CCOCCO)C1 (centres unmarked) the calls were T1: no hit; T2: no hit; T3: no hit.
For O=C(NN=Cc1ccc(-c2cccc(Cl)c2)o1)C(O)c1ccccc1 (centres unmarked) the calls were T1: no hit; T2: no hit; T3: no hit.
For CCc1cc(C#N)ccc1NC(=O)c1cccc(CN2CCOCC2CO)c1 (centres unmarked) the calls were T1: no hit; T2: no hit; T3: no hit.
For O=C(NCc1ccncn1)c1cn(CCC2CCCCN2)nn1 (centres unmarked) the calls were T1: no hit; T2: no hit; T3: no hit.
For Nc1ccc2oc(-c3ccccc3)cc2c1 the calls were T1: no hit; T2: no hit; T3: no hit.
For O=C(NCc1cnn2cccnc12)c1cn(CCC2CCCCN2)nn1 (centres unmarked) the calls were T1: no hit; T2: no hit; T3: no hit.
For Cc1occc1C(=O)N1CCCC(O)(CO)CC1 (centres unmarked) the calls were T1: no hit; T2: no hit; T3: no hit.
For COc1cccc(Nc2cc(C)nc3nc(Cc4ccccc4)nn23)c1 the calls were T1: no hit; T2: no hit.
For Cc1ccc(Nc2cc(C(C)C)nc3nc(-c4cccnc4)nn23)cc1 the calls were T1: no hit; T2: no hit.
For CN[C@@H]1CN(c2ccc3c(=O)c(C(=O)O)cn(-c4nccs4)c3n2)C[C@@H]1OC the calls were T1: no hit; T2: no hit; T3: no hit.
For C[C@@H]1COC(Nc2ccc3ncnc(Nc4ccc(OCc5nccs5)c(Cl)c4)c3c2)=N1 the calls were T1: no hit; T2: no hit; T3: no hit.
For Cn1c(=O)c2c(nc3n2CC(c2ccccc2)=NN3CCO)n(C)c1=O the calls were T1: no hit; T2: no hit; T3: no hit.
For Cc1nc2ccc(Cl)cc2c2c(N)c3ccccc3n12 the calls were T1: no hit; T2: no hit; T3: no hit.
For C=CCc1ccccc1OCC(O)CN1CC(C)OC(C)C1 (centres unmarked) the calls were T1: no hit; T2: no hit; T3: no hit.
For CN(Cc1ccc2ccccc2n1)C(=O)CN1CC2(CCNCC2)OC1=O the calls were T1: no hit; T2: no hit; T3: no hit.
For Cc1ccc(-n2nnc(C(=O)Nc3ccc(C)c(Cl)c3)c2N)cc1 the calls were T1: no hit; T2: no hit; T3: no hit.
For CCc1n[nH]cc1C(=O)N1CCC(C(O)CCc2ccccc2)CC1 (centres unmarked) the calls were T1: no hit; T2: no hit; T3: no hit.
For Cc1nc(C2=C(N)N(CCCO)CC2=O)sc1C the calls were T1: no hit; T2: no hit; T3: no hit.
For Clc1ccc(-c2nnn3c2nc(NCC2CCCO2)c2ccccc23)cc1 (centres unmarked) the calls were T1: no hit; T2: no hit; T3: no hit.
For Cc1ccn2c(NC3CCCC3)c(-c3cccs3)nc2c1 the calls were T1: no hit; T2: no hit; T3: no hit.
For CC(C)c1cc(NCc2ccccc2)n2nc(-c3cccnc3)nc2n1 the calls were T1: no hit; T2: no hit.